Data on one substance can be found in paper PMC6996382.

The chains behind the UniProt entries cited, without tags or fusion partners.
UniProt P46940: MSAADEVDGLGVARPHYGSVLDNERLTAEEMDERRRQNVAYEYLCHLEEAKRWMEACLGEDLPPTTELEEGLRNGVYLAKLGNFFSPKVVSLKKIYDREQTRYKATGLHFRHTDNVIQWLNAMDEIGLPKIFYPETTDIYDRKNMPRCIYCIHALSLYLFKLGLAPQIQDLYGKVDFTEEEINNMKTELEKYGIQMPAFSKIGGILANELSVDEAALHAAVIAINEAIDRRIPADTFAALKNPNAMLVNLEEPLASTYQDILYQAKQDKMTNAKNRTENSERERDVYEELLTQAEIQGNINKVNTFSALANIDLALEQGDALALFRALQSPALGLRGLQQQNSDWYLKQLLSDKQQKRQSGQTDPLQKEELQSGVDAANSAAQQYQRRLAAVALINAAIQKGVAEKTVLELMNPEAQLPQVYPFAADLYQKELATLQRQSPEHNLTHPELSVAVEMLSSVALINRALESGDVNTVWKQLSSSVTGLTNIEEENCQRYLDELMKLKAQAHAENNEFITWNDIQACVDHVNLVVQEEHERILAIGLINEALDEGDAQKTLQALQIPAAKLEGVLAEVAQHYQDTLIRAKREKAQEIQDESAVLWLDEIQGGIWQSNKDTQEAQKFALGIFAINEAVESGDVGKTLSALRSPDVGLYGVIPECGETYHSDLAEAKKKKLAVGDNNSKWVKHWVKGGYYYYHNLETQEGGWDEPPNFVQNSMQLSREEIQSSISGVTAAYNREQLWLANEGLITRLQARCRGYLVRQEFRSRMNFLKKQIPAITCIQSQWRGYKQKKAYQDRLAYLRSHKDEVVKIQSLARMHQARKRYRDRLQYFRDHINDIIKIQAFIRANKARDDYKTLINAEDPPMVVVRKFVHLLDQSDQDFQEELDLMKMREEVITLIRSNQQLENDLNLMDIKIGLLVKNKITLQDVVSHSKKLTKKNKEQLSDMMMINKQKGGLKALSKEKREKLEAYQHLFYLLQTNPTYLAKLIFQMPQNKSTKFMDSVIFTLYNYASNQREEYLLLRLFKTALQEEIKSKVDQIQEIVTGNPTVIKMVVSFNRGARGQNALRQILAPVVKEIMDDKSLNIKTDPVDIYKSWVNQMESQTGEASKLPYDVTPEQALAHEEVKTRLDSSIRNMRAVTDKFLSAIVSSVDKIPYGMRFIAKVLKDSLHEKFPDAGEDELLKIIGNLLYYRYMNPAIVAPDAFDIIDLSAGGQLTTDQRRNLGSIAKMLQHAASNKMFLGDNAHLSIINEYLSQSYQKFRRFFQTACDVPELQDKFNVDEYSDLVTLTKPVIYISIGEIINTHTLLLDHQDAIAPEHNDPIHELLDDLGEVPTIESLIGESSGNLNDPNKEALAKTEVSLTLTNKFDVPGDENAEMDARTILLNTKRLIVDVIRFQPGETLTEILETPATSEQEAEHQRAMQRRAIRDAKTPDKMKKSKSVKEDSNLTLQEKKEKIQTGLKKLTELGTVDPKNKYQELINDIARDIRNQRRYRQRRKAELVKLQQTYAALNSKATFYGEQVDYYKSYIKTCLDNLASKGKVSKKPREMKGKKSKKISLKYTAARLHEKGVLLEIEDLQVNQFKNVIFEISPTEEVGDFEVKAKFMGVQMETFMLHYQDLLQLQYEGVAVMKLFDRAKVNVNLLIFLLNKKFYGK

Results are given in words; binding and its absence hold for the method and conditions named. Binding seen in cells or lysates may run through a third protein. A yes stands for co-enrichment or nearness to the bait. Other partners may have been found.

The target in the assay is T1, p122RhoGTPase‐activating protein (GAP)/deleted in liver cancer‐1 (p122RhoGAP/DLC‐1) (human (endogenous in skin fibroblasts)) (UniProt Q96QB1).
T1 sequence: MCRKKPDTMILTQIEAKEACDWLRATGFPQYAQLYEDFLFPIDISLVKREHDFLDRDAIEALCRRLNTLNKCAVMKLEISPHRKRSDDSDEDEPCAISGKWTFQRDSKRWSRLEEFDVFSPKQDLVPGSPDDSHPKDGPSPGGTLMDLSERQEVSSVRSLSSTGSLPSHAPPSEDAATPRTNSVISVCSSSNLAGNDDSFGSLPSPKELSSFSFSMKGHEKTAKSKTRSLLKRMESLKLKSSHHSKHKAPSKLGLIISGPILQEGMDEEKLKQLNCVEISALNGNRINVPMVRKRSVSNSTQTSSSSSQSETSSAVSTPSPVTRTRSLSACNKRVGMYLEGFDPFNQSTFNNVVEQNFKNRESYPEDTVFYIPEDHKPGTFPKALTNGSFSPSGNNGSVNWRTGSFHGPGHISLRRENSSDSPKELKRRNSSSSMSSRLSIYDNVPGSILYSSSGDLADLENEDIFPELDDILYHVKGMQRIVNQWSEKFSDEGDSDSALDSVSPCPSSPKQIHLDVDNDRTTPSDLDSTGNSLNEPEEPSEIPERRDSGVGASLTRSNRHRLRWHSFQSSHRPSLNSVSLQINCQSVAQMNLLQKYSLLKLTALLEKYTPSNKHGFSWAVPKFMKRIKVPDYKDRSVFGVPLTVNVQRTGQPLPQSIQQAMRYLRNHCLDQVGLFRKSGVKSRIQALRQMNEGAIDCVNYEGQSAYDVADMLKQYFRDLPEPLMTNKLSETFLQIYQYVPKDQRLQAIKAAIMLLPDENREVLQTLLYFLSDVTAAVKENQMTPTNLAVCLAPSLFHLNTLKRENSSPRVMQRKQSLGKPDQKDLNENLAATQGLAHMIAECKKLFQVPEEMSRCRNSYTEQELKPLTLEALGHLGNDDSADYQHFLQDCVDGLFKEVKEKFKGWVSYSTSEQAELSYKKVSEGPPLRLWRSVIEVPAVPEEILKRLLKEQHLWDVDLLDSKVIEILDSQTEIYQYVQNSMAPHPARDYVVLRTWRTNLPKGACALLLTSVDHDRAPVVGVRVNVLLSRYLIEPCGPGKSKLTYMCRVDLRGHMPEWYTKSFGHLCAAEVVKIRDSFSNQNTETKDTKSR
Briefly: affinity purification with mass spectrometry; immunoprecipitation with an anti‐p122RhoGAP/DLC‐1 mouse monoclonal antibody on Dynabeads G from CSA skin fibroblast lysate; 7.5% SDS‐PAGE, silver staining; bands of 150‐250 kDa analysed by TOF‐MS.

With “IQ motif‐containing GTPase‐activating protein 1 (IQGAP1) (from UniProt P46940 1-1657)”, the binding result is “binds”.
